Protein sequences, listed by entry. Tags and fused reporters are not part of them. Lines headed by an entry give the natural chain unless they say otherwise; changes in a name come on top.
UniProt Q9XIP2: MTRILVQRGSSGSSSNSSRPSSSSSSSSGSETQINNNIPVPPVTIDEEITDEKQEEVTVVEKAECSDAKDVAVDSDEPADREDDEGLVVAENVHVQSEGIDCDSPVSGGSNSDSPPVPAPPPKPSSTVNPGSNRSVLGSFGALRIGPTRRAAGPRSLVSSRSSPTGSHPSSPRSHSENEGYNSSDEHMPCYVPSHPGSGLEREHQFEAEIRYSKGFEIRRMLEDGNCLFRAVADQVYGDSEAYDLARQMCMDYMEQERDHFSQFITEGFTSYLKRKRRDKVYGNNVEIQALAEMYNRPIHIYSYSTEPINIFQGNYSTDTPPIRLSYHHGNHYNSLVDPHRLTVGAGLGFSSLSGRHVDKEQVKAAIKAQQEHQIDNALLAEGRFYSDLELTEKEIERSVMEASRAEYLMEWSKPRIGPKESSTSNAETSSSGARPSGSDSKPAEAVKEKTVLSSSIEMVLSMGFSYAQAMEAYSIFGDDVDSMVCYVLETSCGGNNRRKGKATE

In article doi:10.1101/2022.07.30.502139:

B1: LSH4 tagged with a YFP half for BiFC (protein, UniProt Q9LW68 1-195)
chain: MDHIIGFMGTTNMSHNTNLMIAAAATTTTTSSSSSSSSGGSGTNQLSRYENQKRRDWNTFGQYLRNHRPPLSLSRCSGAHVLEFLRYLDQFGKTKVHTHLCPFFGHPNPPAPCACPLRQAWGSLDALIGRLRAAFEENGGSPETNPFGARAVRLYLREVRDSQAKARGISYEKKKRKRPPPPLPPAQPAISSSPN
B2: LSH4-GFP (protein, UniProt Q9LW68 1-195)
chain: MDHIIGFMGTTNMSHNTNLMIAAAATTTTTSSSSSSSSGGSGTNQLSRYENQKRRDWNTFGQYLRNHRPPLSLSRCSGAHVLEFLRYLDQFGKTKVHTHLCPFFGHPNPPAPCACPLRQAWGSLDALIGRLRAAFEENGGSPETNPFGARAVRLYLREVRDSQAKARGISYEKKKRKRPPPPLPPAQPAISSSPN
B3: LSH10 tagged with a YFP half for BiFC (protein, UniProt Q9S7R3 1-177)
chain: MSSPRERGKSLMESSGSEPPVTPSRYESQKRRDWNTFGQYLKNQRPPVPMSHCSCNHVLDFLRYLDQFGKTKVHVPGCMFYGQPEPPAPCTCPLRQAWGSLDALIGRLRAAYEENGGPPETNPFASGAIRVYLREVRECQAKARGIPYKKKKKKKPTPEMGGGREDSSSSSSSFSFS
B4: LSH10-GFP (protein, UniProt Q9S7R3 1-177)
chain: MSSPRERGKSLMESSGSEPPVTPSRYESQKRRDWNTFGQYLKNQRPPVPMSHCSCNHVLDFLRYLDQFGKTKVHVPGCMFYGQPEPPAPCTCPLRQAWGSLDALIGRLRAAYEENGGPPETNPFASGAIRVYLREVRECQAKARGIPYKKKKKKKPTPEMGGGREDSSSSSSSFSFS

Assays:
[1] = target: OTLD1 tagged with a YFP half for BiFC (Arabidopsis) (UniProt Q9XIP2); test: split reporter
[2] = target: OTLD1-RFP (Arabidopsis); test: FRET or BRET
[3] = target: OTLD1-RFP (Arabidopsis); test: FRET or BRET; remark: listed apart in the source

| Binder | binding [1] | binding [2] | binding [3] |
| --- | --- | --- | --- |
| B1 | no binding | – | – |
| B2 | – | no binding | no binding |
| B3 | binds | – | – |
| B4 | – | binds | – |

Read-outs that look alike come from different tables or passages of the source. These are yes or no findings as the source states them, for the method shown. Binding seen in cells or lysates may run through a third protein. For some assays here: Binding can be weak; no strength is given. Tags and fused reporters may be left off the sequences shown.
